The values that follow come from paper doi:10.1101/2025.06.16.659412.

The chains behind the UniProt entries cited, without tags or fusion partners. Where a name states a change or a piece, a line headed by the entry shows the natural chain unless it says otherwise.
UniProt Q64321, whole entry: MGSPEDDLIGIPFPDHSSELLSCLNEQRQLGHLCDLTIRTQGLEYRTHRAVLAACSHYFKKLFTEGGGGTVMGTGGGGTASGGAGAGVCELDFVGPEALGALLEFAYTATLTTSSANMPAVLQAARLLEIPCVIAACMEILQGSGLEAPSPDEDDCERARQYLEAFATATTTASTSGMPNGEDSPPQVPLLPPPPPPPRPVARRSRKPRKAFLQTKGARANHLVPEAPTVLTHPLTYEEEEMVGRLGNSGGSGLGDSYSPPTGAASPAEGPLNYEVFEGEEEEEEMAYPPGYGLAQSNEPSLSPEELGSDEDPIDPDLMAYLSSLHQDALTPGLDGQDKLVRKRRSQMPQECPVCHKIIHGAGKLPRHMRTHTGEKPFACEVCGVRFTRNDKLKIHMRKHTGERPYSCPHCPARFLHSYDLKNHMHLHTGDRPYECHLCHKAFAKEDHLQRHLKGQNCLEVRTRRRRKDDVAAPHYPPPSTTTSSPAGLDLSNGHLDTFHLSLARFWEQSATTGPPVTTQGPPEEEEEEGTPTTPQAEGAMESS
UniProt P28033, whole entry: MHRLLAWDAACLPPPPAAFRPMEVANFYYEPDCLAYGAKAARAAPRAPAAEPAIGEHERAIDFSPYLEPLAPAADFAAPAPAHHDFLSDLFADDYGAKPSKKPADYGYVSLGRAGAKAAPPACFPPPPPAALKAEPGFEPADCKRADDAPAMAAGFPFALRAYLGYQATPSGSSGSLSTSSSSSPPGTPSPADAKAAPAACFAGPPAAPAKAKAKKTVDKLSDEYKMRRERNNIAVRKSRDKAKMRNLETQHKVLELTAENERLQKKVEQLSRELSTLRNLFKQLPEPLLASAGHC
UniProt P53566, whole entry: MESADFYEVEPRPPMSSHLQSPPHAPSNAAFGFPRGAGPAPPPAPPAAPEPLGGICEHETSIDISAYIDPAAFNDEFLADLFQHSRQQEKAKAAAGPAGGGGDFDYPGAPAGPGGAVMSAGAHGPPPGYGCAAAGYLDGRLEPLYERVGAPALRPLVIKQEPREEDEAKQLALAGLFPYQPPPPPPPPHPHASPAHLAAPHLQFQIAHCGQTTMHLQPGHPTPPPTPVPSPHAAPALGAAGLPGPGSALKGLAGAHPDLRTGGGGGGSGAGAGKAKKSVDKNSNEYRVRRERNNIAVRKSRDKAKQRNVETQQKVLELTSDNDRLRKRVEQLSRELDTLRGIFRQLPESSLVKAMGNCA

Like-named read-outs stand apart in the source and are kept apart here. These are yes or no findings as the source states them, for the method shown. Binding seen in cells or lysates may run through a third protein. Some binding calls cover weakened binding; strength is not graded here.

In test [1] the target is Zbtb7b (mouse (endogenous in bone marrow cells)) (UniProt Q64321). The test can be described thus: co-IP.
The target is the same in test [2]. As to the kind of experiment: co-IP. The source holds these as a separate data set.

In the case of Cebpβ (from UniProt P28033 1-296), the binding result in test [1] and in test [2] was “binds” each time. With Cebpα (from UniProt P53566 1-359), the binding entry in test [2] is given as “no binding”.

B1: Cebpδ (protein, UniProt Q00322 1-268)
chain: MSAALFSLDSPVRGTPWPTEPAAFYEPGRVDKPGRGPEPGDLGELGSTTPAMYDDESAIDFSAYIDSMAAVPTLELCHDELFADLFNSNHKAAGAGGLELLQGGPTRPPGVGSVARGPLKREPDWGDGDAPGSLLPAQVAVCAQTVVSLAAAAQPTPPTSPEPPRGSPGPSLAPGTVREKGAGKRGPDRGSPEYRQRRERNNIAVRKSRDKAKRRNQEMQQKLVELSAENEKLHQRVEQLTRDLAGLRQFFKKLPSPPFLPPTGADCR
Consider B1, for which the binding result in test [2] is recorded as “binds”.

B2: Cebpε (protein, UniProt Q6PZD9 1-281)
chain: MSHGTYYECEPRGGQQPLEFSGGRAGPGELGDMCEHEASIDLSAYIESGEEQLLSDLFAMKPTPEARSLKGPGAPSFPHYLPADPRPFAYPSHTFGPDRKALGPGIYSNPGSYDPRAVAVKEEPRGPEGNRGTSRGSYNPLQYQVAHCGQTAVHLPPTLAAPGQPLRVLKAPVAAAAPPCSPLLKAPSPAGPSHKGKKAVNKDSLEYRLRRERNNIAVRKSRDKAKRRIMETQQKVLEYMAENERLRNRVDQLTQELDTLRNLFRQIPEAASLIKGVGGCS
Turning to B2, the binding entry in test [2] is “binds”.

B3: Xbp1 (protein, UniProt O35426 1-267)
chain: MVVVAAAPSAATAAPKVLLLSGQPASGGRALPLMVPGPRAAGSEASGTPQARKRQRLTHLSPEEKALRRKLKNRVAAQTARDRKKARMSELEQQVVDLEEENHKLQLENQLLREKTHGLVVENQELRTRLGMDTLDPDEVPEVEAKGSGVRLVAGSAESAALRLCAPLQQVQAQLSPPQNIFPWTLTLLPLQILSLISFWAFWTSWTLSCFSNVLPQSLLVWRNSQRSTQKDLVPYQPPFLCQWGPHQPSWKPLMNSFVLTMYTPSL
On to B3, for which the binding entry in test [2] is reported as “no binding”.
